Experimental data from PubChem BioAssay AID720533 (National Center for Advancing Translational Sciences (NCATS), 2013).
Values joined by “and” are separate entries in the source; they are usually repeats but may differ in a detail not shown here. Identical values can stand only once. In all, about 18,000 compounds went through this assay and about 750 (4.2%) were called active. The inconclusive results got no clear call from the source; some entries with a clear call stand among them for comparison. Calls come from the whole dose curve; tested in HEK293 cells. Where the call is inconclusive, the potency comes from a doubtful curve fit.

Assay: qHTS for Inhibitors of binding or entry into cells for Lassa Virus
Details: Lassa virus pseudotyped entry inhibition, cell-based qHTS; activity change, negative = inhibition: at 49.2 µM (top of the series) unless noted
% is set by controls: 0 for no effect and ±100 for the full control effect; potency is the fitted concentration of half-maximal effect.

Row | Compound | Potency | activity change, negative = inhibition
1 | CC[C@@]1(O)C(=O)OCc2c1cc1n(c2=O)-c2cc3ccccc3nc2C1 | inconclusive: 8.91 µM [inhibitor, full curve, poor fit] and inconclusive: 89.1 µM [inhibitor, partial curve] and inconclusive: 2 µM [inhibitor, full curve, poor fit] | 
2 | C=CCN(C)CCCCCCOc1ccc(C(=O)c2ccc(Br)cc2)c(F)c1 | inconclusive: 35.5 µM [inhibitor, single point] | 
3 | CN1CCN(CCc2ccc(Cl)c(Cl)c2)CC1 | inconclusive: 35.5 µM [inhibitor, partial curve, poor fit] | 
4 | CC(=O)O[C@]1(C(C)=O)CC[C@H]2[C@@H]3C=C(Cl)C4=CC(=O)CC[C@]4(C)[C@H]3CC[C@@]21C | inconclusive: 35.5 µM [inhibitor, single point] | 
6 | Cc1cc(C)cc(C(=O)OC2C[C@H]3CC[C@@H](C2)N3C)c1 (stereo not given in full) | inconclusive: 35.5 µM [inhibitor, single point] | 
7 | CCN(CC)c1ccc(/C=N/NC(=O)c2ccc(O)cc2)cc1 | inconclusive: 11.2 µM [inhibitor, partial curve] | 
8 | CCN1C(=O)c2ccccc2C1Nc1ccc(OCCN2CCCCC2)cc1 (stereo not given) | inactive | 
9 | C[C@]12C=CC(=O)N[C@@H]1CC[C@@H]1[C@@H]2CC[C@]2(C)[C@@H](C(=O)Nc3cc(C(F)(F)F)ccc3C(F)(F)F)CC[C@@H]12 | inconclusive: 22.4 µM [inhibitor, partial curve] | 
10 | Cn1c(CCCC(=O)O)nc2cc(N(CCCl)CCCl)ccc21 | inconclusive: 20 µM [inhibitor, partial curve] | 
11 | Fc1ccc(-c2ncn(C3CCNCC3)c2-c2ccnc(Oc3ccccc3)n2)cc1 | inconclusive: 6.28 µM [inhibitor, full curve, poor fit] | 
12 | CN(C)CCOc1ccccc1Cc1ccccc1 (tested in a mixture with another compound) | inactive | 
13 | CC(C)NC(=O)[C@@H]1C[C@@H](Sc2nc3ccccc3[nH]2)CN1C1Cc2ccccc2C1 | inconclusive: 11.2 µM [inhibitor, partial curve] | 
14 | O=C(C[C@H]1C(=O)N(c2ccc(Br)cc2)C[C@@H]1Cc1ccccc1)Nc1ccccc1 | inconclusive: 25 µM [inhibitor, partial curve, poor fit] | 
15 | CCOc1ccc(C=C2SC(=O)N(CCN)C2=O)cc1 | active: 12.6 µM | 
16 | C=CCC(O)(/C=C/c1ccccc1)c1ccccc1 (stereo not given) | inactive | 
17 | CC(C)C1C(=O)N(Cc2cn(CC3CCCCC3)nn2)CCS(=O)(=O)N1Cc1ccc(-c2ccc(Cl)cc2)cc1 (stereo not given) | inconclusive: 9.95 µM [inhibitor, partial curve, poor fit] | 
18 | COc1ccc2[nH]cc(CCNc3nc(-c4ccccc4CN(C)C)nc4ccccc34)c2c1 | inconclusive: 35.5 µM [inhibitor, single point] | 
19 | COc1cc(OC)c2c(-c3cccc(-c4ccc(C(C)=O)cc4)c3)cc(=O)oc2c1 | inconclusive: 10 µM [inhibitor, partial curve, poor fit] | 
20 | NC(C(=O)O)C(CC(=O)O)c1ccc(Cl)cc1 (stereo not given) | inactive | 

Row | Compound | Potency | activity change, negative = inhibition
21 | C[C@@]1(C2CCCC2)Cc2cc(OCC(=O)O)c(Cl)c(Cl)c2C1=O | inconclusive: 31.6 µM [inhibitor, single point] | 
22 | COc1ccc(OC)c(-c2cc(Cl)c3c(c2)CC(CNC(=O)c2cccnc2SC)O3)c1 (stereo not given) | inconclusive: 22.4 µM [inhibitor, partial curve, poor fit] | 
23 | C[C@@H]1Cc2c(Cl)cc(C(=O)N[C@@H](Cc3ccccc3)C(=O)O)c(O)c2C(=O)O1 | inconclusive: 6.31 µM [inhibitor, partial curve] | 
24 | COC(=O)N[C@@H](c1ccco1)[C@]1(C(=O)OC)CCCC1=O |  | inactive: -2.1% [at 8.59 µM]
25 | CS(=O)(=O)CCNCc1ccc(-c2ccc3ncnc(Nc4ccc(OCc5cccc(C(F)(F)F)c5)cc4)c3c2)o1 | inconclusive: 28.1 µM [inhibitor, partial curve, poor fit] | 
26 | CCCCCCCCCCCCCCCC[N+](C)(C)Cc1ccccc1 | inconclusive: 35.5 µM [inhibitor, single point] | 
27 | COC(=O)c1cc(C(=O)OC)n2ccc3cc(OC)c(OC)cc3c12 |  | inconclusive: 21.2% [inhibitor] [at 8.59 µM]
28 | COc1cc([C@@H]2c3cc4c(cc3[C@@H](O[C@@H]3O[C@H]5CO[C@@H](C)O[C@@H]5[C@@H](O)[C@H]3O)[C@@H]3COC(=O)[C@@H]23)OCO4)cc(OC)c1O | active: 2.82 µM | 
29 | CC(C)CCC[C@@H](C)[C@@H]1CC[C@H]2C3=CC=C4CC(O)CC[C@]4(C)[C@H]3CC[C@@]21C (stereo not given in full) | inconclusive: 35.5 µM [inhibitor, single point] | 
30 | Clc1ccc(-n2cccc2CN2CCOc3ccc(CN4CCOCC4)cc3C2)nc1 | inactive | 
31 | COc1cc(Nc2c(C#N)cnc3cc(OCCCN4CCN(C)CC4)c(OC)cc23)c(Cl)cc1Cl | inconclusive: 22.4 µM [inhibitor, partial curve, poor fit] | 
32 | C=CCN(CC=C)Cc1cc(=O)oc2cc(C)c(C)cc12 | inconclusive: 6.28 µM [inhibitor, partial curve, poor fit] | 
33 | C=CC[C@@H]1C=C[C@H](ON=C(C)CCN2CCCCc3nc(C)c(C)cc32)[C@H](CO)O1 |  | inactive: -5.25% [at 8.59 µM]
34 | O=C(O)/C=C/C(O)c1ccc(Cl)cc1 (stereo not given) | inconclusive: 12.6 µM [inhibitor, full curve] | 
35 | COC(=O)C1=C(C)NC(C)=C(C(=O)OC(C)(C)CN(C)CCC(c2ccccc2)c2ccccc2)C1c1cccc([N+](=O)[O-])c1 (stereo not given) | active: 12.6 µM | 
36 | COc1cc(/C=C/C(=O)/C=C(O)/C=C/c2ccc(O)c(OC)c2)ccc1O | inconclusive: 25.1 µM [inhibitor, single point] | 
37 | Nc1nc2c(ncn2C2OC(COC(=O)c3ccccc3)C(OC(=O)c3ccccc3)C2OC(=O)c2ccccc2)c(=O)[nH]1 (stereo not given) | active: 11.2 µM | 
38 | CCCCC(C)/C=C(C)/C=C(\C)C(=O)NC1=CC(O)(/C=C/C=C/C=C/C(=O)NC2=C(O)CCC2=O)C2OC2C1=O (stereo not given) | active: 7.08 µM | 
39 | COc1cc(OC)c2c(-c3cccc(-c4ccc(C(F)(F)F)cc4)c3)cc(=O)oc2c1 | inconclusive: 7.08 µM [inhibitor, single point] | 
40 | COc1cccc(COc2cc(-n3cnc4ccccc43)sc2C(N)=O)c1 | inconclusive: 4.99 µM [inhibitor, full curve] | 

Row | Compound | Potency | activity change, negative = inhibition
41 | Oc1c(Cl)cc(Cl)c2cccnc12 | inconclusive: 10 µM [inhibitor, partial curve] | 
42 | CN1CCN(CCCN2c3ccccc3Sc3ccccc32)CC1 | inconclusive: 28.2 µM [inhibitor, partial curve] | 
43 | NC[C@@H]1O[C@H](C23CC4CC(CC(C4)C2)C3)Cc2c1ccc(O)c2O | inconclusive: 35.5 µM [inhibitor, single point] | 
44 | CC(C)(C)c1ccc(O)c(O)c1 | inconclusive: 50.1 µM [inhibitor, partial curve] | 
45 | COc1cc2c(C=O)c3c4c(cc(OC)c(OC)c4c2cc1OC)CCN3C | active: 15.8 µM | 
46 | COc1ccc(-c2ccc(CN3C(CC(C)C)C(=O)N(Cc4cn(Cc5ccco5)nn4)CCS3(=O)=O)cc2)cc1 (stereo not given) | inconclusive: 11.2 µM [inhibitor, single point] | 
47 | CCCCC(CC)COC(=O)CC(C(=O)OCC(CC)CCCC)S(=O)(=O)O (stereo not given) | inconclusive: 12.6 µM [inhibitor, partial curve, poor fit] | 
48 | C=CC[C@@](C(C)=O)(C(=O)OC)[C@@H](NC(=O)OC)c1ccccc1 |  | inactive: -14.6% [at 8.59 µM]
49 | Nc1ccc(Cl)cc1 | inconclusive: 28.2 µM [inhibitor, partial curve] | 
50 | C=C1[C@@H]2CC[C@@H](C2)C1(C)C | inactive | 
51 | CN[C@@H](C)[C@H](O)c1ccccc1 | inactive | 
52 | CO[C@H]1C[C@H](O[C@@H]2/C(C)=C/C[C@@H]3C[C@@H](C[C@]4(CC[C@H](C)[C@@H](C5CCCCC5)O4)O3)OC(=O)[C@@H]3C=C(C)/C(=N/O)[C@H]4OC/C(=C\C=C\[C@@H]2C)[C@]43O)O[C@@H](C)[C@@H]1O | inactive | 
53 | Cc1nc2sccn2c(=O)c1CCN1CCC(=C(c2ccc(F)cc2)c2ccc(F)cc2)CC1 | active: 35.5 µM | 
54 | O=C(C1CCCCC1)N1C[C@@H](O)[C@@H](n2cc(-c3ccc(F)cc3)nn2)C[C@@H]1c1ccc(Cl)cc1 | inconclusive: 35.3 µM [inhibitor, single point] | 
55 | Cc1cc(C)c2c(CN(C)Cc3ccccc3)cc(=O)oc2c1 | inconclusive: 6.28 µM [inhibitor, full curve, poor fit] | 
56 | O=C1c2c(O)ccc(O)c2C(=O)c2c(NCCNCCO)ccc(NCCNCCO)c21 | active: 0.316 µM | 
57 | Cc1cc(-c2cc(F)cc3c2OC(CNC(=O)CCn2cncn2)C3)ccc1F (stereo not given) | inactive | 
58 | CCOC(=O)CN1C(=O)[C@]2(OCCC=C[C@@H]2C)c2ccccc21 |  | inactive: 11.3% [at 8.59 µM]
59 | S=C=Nc1cccc(C2(N3CCCCC3)CCCCC2)c1 | active: 14.1 µM | 
60 | C[C@H]1COc2cc(NCCCN3CCOCC3)ccc2S(=O)(=O)N1 |  | inconclusive: 5.64% [inhibitor]
